## Results of single-concentration screens

Data taken from ChEMBL document CHEMBL3988442, “University of Dundee, Small-Polar-MMV Screening Library” (2021).

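Whole-parasite assay of Trypanosoma brucei over 72 hours; the read-out is not stated. Tested at 30 µM. Higher reads as stronger inhibition (inferred: compounds with an IC50 in retests scored well above the rest). Values scatter widely below zero; nearly all retest evidence comes from the higher of the two concentrations used. Size under these conditions: about 64,000 compounds, about 940 of them at 50% or above in at least one test.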

Values are the deposited “Percent Effect”, in %. The controls that fix the scale are not given in the record; negative values are as filed. The compounds are a random part of those screened.

compound: CN(Cc1ccco1)C(=O)NCc1nnc2n1CCC2
effect: -33.36%

compound: Cc1ncc2c(n1)CN(Cc1nc3c(F)cccc3[nH]1)CC2
effect: 6.097%

compound: Cc1cc(CN(C)CCC(O)c2ccccc2)nn1C (stereo not drawn)
effect: -14.86%

compound: CC(C)OC(=O)N1CCC(Cc2cccc(C(N)=O)c2)C1 (stereo not drawn)
effect: -26.6%

compound: Cc1ncc2c(n1)CN(C(C(N)=O)c1ccccc1)CC2 (stereo not drawn)
effect: -5.797%

compound: Cc1ccccc1CS(=O)(=O)Cc1nc(C2CC2)no1
effect: -16.17%

compound: Cc1cc(-c2cnc(NCc3ccncc3)nc2C(C)C)on1
effect: 23.52%

compound: Cc1nsc(N2CCN(CC(=O)N(C3CC3)C(C)C3CC3)CC2)n1 (stereo not drawn)
effect: -102%

compound: Fc1cccc(-c2nc(CN3CCn4c(nnc4C4CC4)C3)co2)c1
effect: -19.72%

compound: CN(C)c1ccc(C(=O)NCC2(c3ccccc3)CCOCC2)cc1
effect: -6.891%

compound: CN(C)C(C(=O)N1CCC(c2ncc[nH]2)CC1)c1ccc2c(c1)OCO2 (stereo not drawn)
effect: -34.59%

compound: Cc1noc(C)c1CN1Cc2nccn2CC(CN2CCOCC2)C1.O=C(O)C(F)(F)F.O=C(O)C(F)(F)F (stereo not drawn)
effect: 27.27%

compound: CC(Oc1ccc2c(c1)OCO2)C(=O)N1CCC(c2ncc[nH]2)CC1 (stereo not drawn)
effect: -15.4%

compound: Cc1ccnn1CCC(=O)N1C[C@@H](O)[C@H](Oc2cccc(F)c2)C1
effect: 9.118%

compound: COc1ccc(-c2csc3c2c(N)nc(=O)n3CCCN(C)C)cc1
effect: -33.83%

compound: CC(=O)NCc1cc2n(n1)CCN(Cc1ccccc1OC(F)(F)F)C2
effect: -25.82%

compound: O=C(O)C(F)(F)F.O=C(O)C(F)(F)F.[H][C@@]12CN(Cc3cccs3)C[C@@]1([H])N(Cc1ccncc1)C(=O)CO2
effect: -23.71%

compound: Cc1csc(C2(NC(=O)NCCN3CCOCC3)CCCC2)n1
effect: -1.339%

compound: CCc1nnc2n1CCN(C(=O)c1ccc3c(c1)NC(=O)CO3)C2
effect: -22.12%

compound: CN(C)C(=O)Cc1nc(CN2CCCC2Cn2cccn2)cs1 (stereo not drawn)
effect: -75.86%

compound: Cc1nnc(CN2CCCC(c3cc(C(N)=O)[nH]n3)C2)o1 (stereo not drawn)
effect: -11.95%

compound: Cc1cc(C)cc(N2CCN(C(=O)C3CN(C)C(=O)N3)CC2=O)c1 (stereo not drawn)
effect: -27.87%

compound: COCCN1CCN(C(C(=O)O)c2ccc(SC)cc2)CC1 (stereo not drawn)
effect: 3.046%

compound: O=C(O)c1cc(S(=O)(=O)N2CCOc3ccccc32)ccc1Br
effect: -1.383%

compound: [H][C@]12CCN(C(=O)CC(C)C)CC[C@@]1([H])S(=O)(=O)N(Cc1cccnc1)C2
effect: -51.79%

compound: O=C(Nc1nc2c(s1)CN(S(=O)(=O)C1CC1)CC2)c1ccccn1
effect: -33.85%

compound: Cc1cc2c(cc1NC(=O)NCC(C)C)OCO2
effect: -17.69%

compound: CCOCC(=O)NCC(Cc1cccc(F)c1)n1cccc1 (stereo not drawn)
effect: -4.586%

compound: O=C(NCC1CC1)C1CN(C(=O)c2cccnc2)CC12CCOCC2 (stereo not drawn)
effect: 40.72%

compound: Cc1cccc(C(C)CNC(=O)N2CCC3(C2)OCCO3)c1 (stereo not drawn)
effect: 20.41%

compound: Fc1cc(CNc2nncs2)ccc1Cl
effect: 0.4091%

compound: Cc1ccc(NC(=O)NC(C)c2nc[nH]n2)s1 (stereo not drawn)
effect: 28.44%

compound: CC(C)c1ccc(CN2CCCC3(CC2)CN(C)C(=O)O3)cc1 (stereo not drawn)
effect: 97.32%

compound: COc1ccccc1C(=O)NC(c1ccccn1)[C@H]1CC[C@H](CN)CC1 (stereo partly drawn)
effect: -2.131%

compound: Cc1ccsc1[C@@H]1CCN(C(=O)c2ccc(-c3cc[nH]n3)cc2)C[C@H]1O
effect: 19.46%

compound: COc1cc(N2CCCC(c3nccn3Cc3ccncc3)C2)ncn1 (stereo not drawn)
effect: -7.113%

compound: CN(C)CC1CSCCCN1C(=O)c1ccc(-c2ccccc2)cc1 (stereo not drawn)
effect: 10.59%

compound: O=C(O)C(F)(F)F.O=C(O)C(F)(F)F.[H][C@@]12CCN(Cc3ccc(C)s3)C[C@]1([H])[C@@H](CN(C)Cc1ccco1)OC2
effect: -13.26%

compound: Cc1ccc(C#N)cc1NC(=O)NC1CCCN(c2ncccn2)C1 (stereo not drawn)
effect: 2.337%

compound: CCN(CC)Cc1ccc(C(=O)NC2CCc3cc(Br)ccc32)o1 (stereo not drawn)
effect: -107.8%

compound: COc1cccc(CN2CC(O)CN(C(=O)C3CCC3)CC2=O)c1OC (stereo not drawn)
effect: -10.18%

compound: CCC(=O)NC(c1cccnc1)c1cc(C)ccc1C (stereo not drawn)
effect: -2.758%

compound: O=C(CCc1nnc2ccccn2c1=O)NCc1ccc2c(c1)OCO2
effect: -18.16%

compound: CC(C)c1noc(CCCC(=O)NCC2CCS(=O)(=O)C2)n1 (stereo not drawn)
effect: -25.11%

compound: CC(C)Cn1cc(NC(=O)c2cccc(N(C)C)c2)cn1
effect: -7.495%

Once more, the final 3:

| compound | effect |
|---|---|
| `O=C(CCc1nnc2ccccn2c1=O)NCc1ccc2c(c1)OCO2` | -18.16% |
| `CC(C)c1noc(CCCC(=O)NCC2CCS(=O)(=O)C2)n1` (stereo not drawn) | -25.11% |
| `CC(C)Cn1cc(NC(=O)c2cccc(N(C)C)c2)cn1` | -7.495% |